Assay results as given in patent publication US20110301099A1, “Method for enhancing penetration of lipid insoluble medicaments through cell membranes using small S-Allyl-containing molecules with phospholipid permeability as carrier molecules” (priority 2010, published 2011).

Details: same patient, control sites not previously treated with Allium sativum/1% xylocaine extract

For `CCN(CC)CC(=O)Nc1c(C)cccc1C` [1% xylocaine, xylocaine], the “pain and discomfort on subcutaneous injection” value was “produced pain and discomfort”.
